Data as given in PubChem BioAssay AID1259425 (University of Nebraska Medical Center, 2018).

Aim: 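Seek colon cancer weak points whose silencing resembles KSR1 loss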 (primary screen)
System: HCT116 human colon cancer cells
Reagent: siRNA pool against human genes, 50 nM siRNA
Measured: 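mRNA of six signature genes measured together by branched-DNA assay after 50 nM siRNA pool, blank removed, divided by geometric mean of two housekeeping genes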
Reading the numbers: BNIP3L mRNA: higher = more BNIP3L transcript after knockdown; NDRG1 mRNA: higher = more NDRG1 transcript after knockdown
The whole screen tested about 14,000 reagents; this is a part drawn at random. Not all columns of the deposit are shown. Not stated in the record: the time to read-out.

The first 6 records, to show the layout:
gene symbol,"BNIP3L mRNA, set 1","NDRG1 mRNA, set 1"
ABCA12,0.0638,0.208
GP5,0.162,0.296
PCBP4,0.101,0.638
SERPINA3,0.186,0.137
SMG5,0.0745,0.218
ZCCHC7,0.179,0.191

The listing, repeating the preview:
gene symbol,"BNIP3L mRNA, set 1","NDRG1 mRNA, set 1"
ABCA12,0.0638,0.208
GP5,0.162,0.296
PCBP4,0.101,0.638
SERPINA3,0.186,0.137
SMG5,0.0745,0.218
ZCCHC7,0.179,0.191
TAS2R39,0.111,0.186
PPY,0.0549,0.0628
PRMT2IP,0.14,0.852
PLA2G3,0.14,0.0561
SETX,0.223,0.534
KPNA5,0.0697,0.164
AGPAT2,0.0641,0.136
UQCRC2,0.0601,0.253
EIF5B,0.137,0.143
POU1F1,0.131,0.137
SLC2A8,0.122,0.149
NEK4,0.135,0.112
NFIX,0.0969,0.428
DNAJC4,0.13,0.139
CROCC,0.262,0.268
ADAMTS10,0.102,0.246
ATE1,0.187,0.494
AKAP12,0.112,0.0663
PRPF39,0.156,0.143
DBI,0.0907,0.357
KCNG2,0.106,0.432
EFNA2,0.0951,0.115
MMP28,0.105,0.115
DIRAS1,0.151,0.0596
ALDOA,0.0349,0.429
TOMM40L,0.387,0.19
HYAL4,0.0198,0.159
BCAS1,0.146,0.228
MLN,0.067,0.116
MMRN2,0.133,0.175
MAGI2,0.0887,0.131
PSME3IP1,0.103,0.174
SCO1,0.15,0.128
RB1CC1,0.0564,0.204
THAP7,0.192,0.938
PCDHB1,0.175,0.249
CDKN1C,0.0895,0.183
SIX3,0.168,0.0967
ABCB8,0.108,0.513
DMC1,0.102,0.269
HOXD3,0.173,0.155
SYNJ2BP,0.623,0.842
FBXL6,0.0957,0.596
SLC27A6,0.0921,0.208
UBA1,0.123,0.403
NF1,0.045,0.124
LUC7L2,0.229,0.545
TIMM17B,0.0436,0.0655
PF4V1,0.204,0.603
LGALSL,0.0604,0.235
GLUD1,0.213,0.0788
DGCR6L,0.208,0.364
FCF1,0.175,0.194
ESM1,0.0614,0.0864
CTSA,0.109,0.17
MYH1,0.14,0.195
POMGNT1,0.0723,0.218
